No constants are given. Whether binding was seen depends on the method and setting. Binding seen in cells or lysates may run through a third protein. A yes stands for co-enrichment or nearness to the bait. Other partners may have been found.

Amino acid sequences for entries named in this document (tags omitted).
UniProt P03083: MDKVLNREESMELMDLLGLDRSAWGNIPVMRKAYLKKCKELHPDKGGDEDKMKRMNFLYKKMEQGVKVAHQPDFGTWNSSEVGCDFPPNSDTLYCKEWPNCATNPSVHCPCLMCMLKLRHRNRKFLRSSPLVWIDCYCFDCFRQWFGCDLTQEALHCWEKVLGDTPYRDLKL

B1: Ataxin 2-like, isoform CRA_e (protein, UniProt Q8WWM7 1-1075)
chain: MLKPQPLQQPSQPQQPPPTQQAVARRPPGGTSPPNGGLPGPLATSAAPPGPPAAASPCLGPVAAAGSGLRRGAEGILAPQPPPPQQHQERPGAAAIGSARGQSTGKGPPQSPVFEGVYNNSRMLHFLTAVVGSTCDVKVKNGTTYEGIFKTLSSKFELAVDAVHRKASEPAGGPRREDIVDTMVFKPSDVMLVHFRNVDFNYATKDKFTDSAIAMNSKVNGEHKEKVLQRWEGGDSNSDDYDLESDMSNGWDPNEMFKFNEENYGVKTTYDSSLSSYTVPLEKDNSEEFRQRELRAAQLAREIESSPQYRLRIAMENDDGRTEEEKHSAVQRQGSGRESPSLASREGKYIPLPQRVREGPRGGVRCSSSRGGRPGLSSLPPRGPHHLDNSSPGPGSEARGINGGPSRMSPKAQRPLRGAKTLSSPSNRPSGETSVPPPPAVGRMYPPRSPKSAAPAPISASCPEPPIGSAVPTSSASIPVTSSVSDPGVGSISPASPKISLAPTDVKELSTKEPGRTLEPQELARIAGKVPGLQNEQKRFQLEELRKFGAQFKLQPSSSPENSLDPFPPRILKEEPKGKEKEVDGLLTSEPMGSPVSSKTESVSDKEDKPPLAPSGGTEGPEQPPPPCPSQTGSPPVGLIKGEDKDEGPVAEQVKKSTLNPNAKEFNPTKPLLSVNKSTSTPTSPGPRTHSTPSIPVLTAGQSGLYSPQYISYIPQIHMGPAVQAPQMYPYPVSNSVPGQQGKYRGAKGSLPPQRSDQHQPASAPPMMQAAAAAGPPLVAATPYSSYIPYNPQQFPGQPAMMQPMAHYPSQPVFAPMLQSNPRMLTSGSHPQAIVSSSTPQYPSAEQPTPQALYATVHQSYPHHATQLHAHQPQPATTPTGSQPQSQHAAPSPVQHQAGQAPHLGSGQPQQNLYHPGALTGTPPSLPPGPSAQSPQSSFPQPAAVYAIHHQQLPHGFTNMAHVTQAHVQTGITAAPPPHPGAPHPPQVMLLHPPQSHGGPPQGAVPQSGVPALSASTPSPYPYIGHPQGEQPGQAPGFPGGADDRIREFSLAGGIWHGRAEGLQVGQDARVLGGE
B2: Biotin—protein ligase (protein, UniProt P50747 1-726)
chain: MEDRLHMDNGLVPQKIVSVHLQDSTLKEVKDQVSNKQAQILEPKPEPSLEIKPEQDGMEHVGRDDPKALGEEPKQRRGSASGSEPAGDSDRGGGPVEHYHLHLSSCHECLELENSTIESVKFASAENIPDLPYDYSSSLESVADETSPEREGRRVNLTGKAPNILLYVGSDSQEALGRFHEVRSVLADCVDIDSYILYHLLEDSALRDPWTDNCLLLVIATRESIPEDLYQKFMAYLSQGGKVLGLSSSFTFGGFQVTSKGALHKTVQNLVFSKADQSEVKLSVLSSGCRYQEGPVRLSPGRLQGHLENEDKDRMIVHVPFGTRGGEAVLCQVHLELPPSSNIVQTPEDFNLLKSSNFRRYEVLREILTTLGLSCDMKQVPALTPLYLLSAAEEIRDPLMQWLGKHVDSEGEIKSGQLSLRFVSSYVSEVEITPSCIPVVTNMEAFSSEHFNLEIYRQNLQTKQLGKVILFAEVTPTTMRLLDGLMFQTPQEMGLIVIAARQTEGKGRGGNVWLSPVGCALSTLLISIPLRSQLGQRIPFVQHLMSVAVVEAVRSIPEYQDINLRVKWPNDIYYSDLMKIGGVLVNSTLMGETFYILIGCGFNVTNSNPTICINDLITEYNKQHKAELKPLRADYLIARVVTVLEKLIKEFQDKGPNSVLPLYYRYWVHSGQQVHLGSAEGPKVSIVGLDDSGFLQVHQEGGEVVTVHPDGNSFDMLRNLILPKRR
B3: Coiled-Coil-Helix-Coiled-Coil-Helix Domain Containing 4 (protein, UniProt Q8N4Q1 1-142)
chain: MSYCRQEGKDRIIFVTKEDHETPSSAELVADDPNDPYEEHGLILPNGNINWNCPCLGGMASGPCGEQFKSAFSCFHYSTEEIKGSDCVDQFRAMQECMQKYPDLYPQEDEDEEEEREKKPAEQAEETAPIEATATKEEEGSS
B4: Remodeling and spacing factor 1 (protein, UniProt Q96T23 1-1441)
chain: MATAAAAAAVMAPPGCPGSCPNFAVVCSFLERYGPLLDLPELPFPELERVLQAPPPDVGNGEVPKELVELHLKLMRKIGKSVTADRWEKYLIKICQEFNSTWAWEMEKKGYLEMSVECKLALLKYLCECQFDDNLKFKNIINEEDADTMRLQPIGRDKDGLMYWYQLDQDHNVRMYIEEQDDQDGSSWKCIVRNRNELAETLALLKAQIDPVLLKNSSQQDNSSRESPSLEDEETKKEEETPKQEEQKESEKMKSEEQPMDLENRSTANVLEETTVKKEKEDEKELVKLPVIVKLEKPLPENEEKKIIKEESDSFKENVKPIKVEVKECRADPKDTKSSMEKPVAQEPERIEFGGNIKSSHEITEKSTEETEKLKNDQQAKIPLKKREIKLSDDFDSPVKGPLCKSVTPTKEFLKDEIKQEEETCKRISTITALGHEGKQLVNGEVSDERVAPNFKTEPIETKFYETKEESYSPSKDRNIITEGNGTESLNSVITSMKTGELEKETAPLRKDADSSISVLEIHSQKAQIEEPDPPEMETSLDSSEMAKDLSSKTALSSTESCTMKGEEKSPKTKKDKRPPILECLEKLEKSKKTFLDKDAQRLSPIPEEVPKSTLESEKPGSPEAAETSPPSNIIDHCEKLASEKEVVECQSTSTVGGQSVKKVDLETLKEDSEFTKVEMDNLDNAQTSGIEEPSETKGSMQKSKFKYKLVPEEETTASENTEITSERQKEGIKLTIRISSRKKKPDSPPKVLEPENKQEKTEKEEEKTNVGRTLRRSPRISRPTAKVAEIRDQKADKKRGEGEDEVEEESTALQKTDKKEILKKSEKDTNSKVSKVKPKGKVRWTGSRTRGRWKYSSNDESEGSGSEKSSAASEEEEEKESEEAILADDDEPCKKCGLPNHPELILLCDSCDSGYHTACLRPPLMIIPDGEWFCPPCQHKLLCEKLEEQLQDLDVALKKKERAERRKERLVYVGISIENIIPPQEPDFSEDQEEKKKDSKKSKANLLERRSTRTRKCISYRFDEFDEAIDEAIEDDIKEADGGGVGRGKDISTITGHRGKDISTILDEERKENKRPQRAAAARRKKRRRLNDLDSDSNLDEEESEDEFKISDGSQDEFVVSDENPDESEEDPPSNDDSDTDFCSRRLRRHPSRPMRQSRRLRRKTPKKKYSDDDEEEESEENSRDSESDFSDDFSDDFVETRRRRSRRNQKRQINYKEDSESDGSQKSLRRGKEIRRVHKRRLSSSESEESYLSKNSEDDELAKESKRSVRKRGRSTDEYSEADEEEEEEEGKPSRKRLHRIETDEEESCDNAHGDANQPARDSQPRVLPSEQESTKKPYRIESDEEEDFENVGKVGSPLDYSLVDLPSTNGQSPGKAIENLIGKPTEKSQTPKDNSTASASLASNGTSGGQEAGAPEEEEDELLRVTDLVDYVCNSEQL
B5: Nucleolar protein 6 (protein, UniProt Q9H6R4 1-1146)
chain: MGPAPAGEQLRGATGEPEVMEPALEGTGKEGKKASSRKRTLAEPPAKGLLQPVKLSRAELYKEPTNEELNRLRETEILFHSSLLRLQVEELLKEVRLSEKKKDRIDAFLREVNQRVVRVPSVPETELTDQAWLPAGVRVPLHQVPYAVKGCFRFLPPAQVTVVGSYLLGTCIRPDINVDVALTMPREILQDKDGLNQRYFRKRALYLAHLAHHLAQDPLFGSVCFSYTNGCHLKPSLLLRPRGKDERLVTVRLHPCPPPDFFRPCRLLPTKNNVRSAWYRGQSPAGDGSPEPPTPRYNTWVLQDTVLESHLQLLSTILSSAQGLKDGVALLKVWLRQRELDKGQGGFTGFLVSMLVVFLVSTRKIHTTMSGYQVLRSVLQFLATTDLTVNGISLCLSSDPSLPALADFHQAFSVVFLDSSGHLNLCADVTASTYHQVQHEARLSMMLLDSRADDGFHLLLMTPKPMIRAFDHVLHLRPLSRLQAACHRLKLWPELQDNGGDYVSAALGPLTTLLEQGLGARLNLLAHSRPPVPEWDISQDPPKHKDSGTLTLGLLLRPEGLTSVLELGPEADQPEAAKFRQFWGSRSELRRFQDGAIREAVVWEAASMSQKRLIPHQVVTHLLALHADIPETCVHYVGGPLDALIQGLKETSSTGEEALVAAVRCYDDLSRLLWGLEGLPLTVSAVQGAHPVLRYTEVFPPTPVRPAFSFYETLRERSSLLPRLDKPCPAYVEPMTVVCHLEGSGQWPQDAEAVQRVRAAFQLRLAELLTQQHGLQCRATATHTDVLKDGFVFRIRVAYQREPQILKEVQSPEGMISLRDTAASLRLERDTRQLPLLTSALHGLQQQHPAFSGVARLAKRWVRAQLLGEGFADESLDLVAAALFLHPEPFTPPSSPQVGFLRFLFLVSTFDWKNNPLFVNLNNELTVEEQVEIRSGFLAARAQLPVMVIVTPQDRKNSVWTQDGPSAQILQQLVVLAAEALPMLEKQLMDPRGPGDIRTVFRPPLDIYDVLIRLSPRHIPRHRQAVDSPAASFCRGLLSQPGPSSLMPVLGYDPPQLYLTQLREAFGDLALFFYDQHGGEVIGVLWKPTSFQPQPFKASSTKGRMVMSRGGELVMVPNVEAILEDFAVLGEGLVQTVEARSERWTV
B6: E3 ubiquitin-protein ligase RNF220 (protein, UniProt Q5VTB9 1-566)
chain: MDLHRAAFKMENSSYLPNPLASPALMVLASTAEASRDASIPCQQPRPFGVPVSVDKDVHIPFTNGSYTFASMYHRQGGVPGTFANRDFPPSLLHLHPQFAPPNLDCTPISMLNHSGVGAFRPFASTEDRESYQSAFTPAKRLKNCHDTESPHLRFSDADGKEYDFGTQLPSSSPGSLKVDDTGKKIFAVSGLISDREASSSPEDRNDRCKKKAAALFDSQAPICPICQVLLRPSELQEHMEQELEQLAQLPSSKNSLLKDAMAPGTPKSLLLSASIKREGESPTASPHSSATDDLHHSDRYQTFLRVRANRQTRLNARIGKMKRRKQDEGQREGSCMAEDDAVDIEHENNNRFEEYEWCGQKRIRATTLLEGGFRGSGFIMCSGKENPDSDADLDVDGDDTLEYGKPQYTEADVIPCTGEEPGEAKEREALRGAVLNGGPPSTRITPEFSKWASDEMPSTSNGESSKQEAMQKTCKNSDIEKITEDSAVTTFEALKARVRELERQLSRGDRYKCLICMDSYSMPLTSIQCWHVHCEECWLRTLGAKKLCPQCNTITAPGDLRRIYL
B7: Protein Mis18-alpha (protein, UniProt Q9NYP9 1-233)
chain: MAGVRSLRCSRGCAGGCECGDKGKCSDSSLLGKRLSEDSSRHQLLQKWASMWSSMSEDASVADMERAQLEEEAAAAEERPLVFLCSGCRRPLGDSLSWVASQEDTNCILLRCVSCNVSVDKEQKLSKREKENGCVLETLCCAGCSLNLGYVYRCTPKNLDYKRDLFCLSVEAIESYVLGSSEKQIVSEDKELFNLESRVEIEKSLTQMEDVLKALQMKLWEAESKLSFATCKS
B8: BTB/POZ domain-containing protein 9 (protein, UniProt Q96Q07 1-612)
chain: MSNSHPLRPFTAVGEIDHVHILSEHIGALLIGEEYGDVTFVVEKKRFPAHRVILAARCQYFRALLYGGMRESQPEAEIPLQDTTAEAFTMLLKYIYTGRATLTDEKEEVLLDFLSLAHKYGFPELEDSTSEYLCTILNIQNVCMTFDVASLYSLPKLTCMCCMFMDRNAQEVLSSEGFLSLSKTALLNIVLRDSFAAPEKDIFLALLNWCKHNSKENHAEIMQAVRLPLMSLTELLNVVRPSGLLSPDAILDAIKVRSESRDMDLNYRGMLIPEENIATMKYGAQVVKGELKSALLDGDTQNYDLDHGFSRHPIDDDCRSGIEIKLGQPSIINHIRILLWDRDSRSYSYFIEVSMDELDWVRVIDHSQYLCRSWQKLYFPARVCRYIRIVGTHNTVNKIFHIVAFECMFTNKTFTLEKGLIVPMENVATIADCASVIEGVSRSRNALLNGDTKNYDWDSGYTCHQLGSGAIVVQLAQPYMIGSIRLLLWDCDDRSYSYYVEVSTNQQQWTMVADRTKVSCKSWQSVTFERQPASFIRIVGTHNTANEVFHCVHFECPEQQSSQKEENSEESGTGDTSLAGQQLDSHALRAPSGSSLPSSPGSNSRSPNRQHQ

The test addresses T7-2xStrep-JCV Sm t-Ag (JC virus (JCV)) (UniProt P03083). As to the kind of experiment: affinity purification with mass spectrometry.
In the case of B1, the binding entry is given as “binds”.
To B2 belongs “binds”; to B3, “binds”; to B4, “binds”.
On to B5, for which the binding entry is recorded as “binds”.
In the case of B6 it was “binds”.
B7: the binding entry was “binds”.
On to B8, for which the binding result was “binds”.

Source of the values: publication PMC7594058.
